## Library screen at single concentrations

The values are deposited in ChEMBL (CHEMBL3988442, “University of Dundee, Small-Polar-MMV Screening Library” (2021)).

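Phenotypic screen: M. tuberculosis growth, glucose 7H9 medium, 3 days; the read-out is not stated. Concentration: 50 µM. The record gives no direction; compounds that gave an IC50 in retests scored well above the rest, so higher reads as more growth inhibition. About 69,000 compounds were tested under these conditions; 1.1% (about 760) showed 50% or more at least once.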

Results are given as percent effect.
How 0% and 100% were set is not recorded. Most values in the screen are low, and negative values occur.
The compounds are a random part of those screened.
Two or more numbers in one place are separate tests of the same structure; such repeats can differ widely.

Cc1nc(C2CCNCC2)cc(N(C)Cc2cc3cc(F)ccc3[nH]2)n1 gave 49.86%.
CC(C)n1cc(-c2nc3cc(S(=O)(=O)N4CCCC4)ccc3n2C)cn1 gave -18.02%.
CC(C)c1noc(C(C)N2CCC(c3nc4ccccc4o3)CC2)n1 (stereo not given) gave 17.08% & -24.86%.
Cn1ccc(C(=O)N2CCN(c3cc(C#N)ccn3)CC2)cc1=O gave 12.19%.
Cn1ncc2c1NC(=O)CC2c1ccc(Cl)cc1Cl (stereo not given) gave 17.32% & 14.33%.
CCN(Cc1nonc1C)C(=O)c1cc(C(F)(F)F)nn1C gave 15.7%.
CN1CCN(C(=O)c2cc(-c3ccco3)cs2)CC1 gave 10.12%.
O=C(NCCC1=CCCCC1)c1cc(-c2ccc(O)cc2)n[nH]1 gave -10.74%.
Cc1ccccc1SC1CCN(C(=O)C2CNC(=O)N2)CC1 (stereo not given) gave -0.9174%.
COc1cccc(CNC(=O)CCOc2ccccc2C)c1 gave -14.34% & 15.59%.
Cc1nccn1[C@@H]1CC[C@@H](NC(=O)CCOc2ccccc2)[C@H]1O gave -12.37%.
CC(C)N(C)CCNC(=O)N(C)CC1CCOCC1 gave -8.851%.
O=C(O)C(F)(F)F.O=C(O)C(F)(F)F.O=C(O)C(F)(F)F.[H][C@@]12CN(Cc3ccc(OC)cc3)C[C@]1([H])OCCN2CCN(C)C gave 31.08%.
CSCCN1CCC(NC(=O)OC(C)(C)C)CC1 gave 5.653%.
CC(C)c1n[nH]c(C(=O)NC(C)c2ccncc2)c1Br (stereo not given) gave -1.041% & 2.434%.
Cc1nc(C)n(CC2CCCN(Cc3cccnc3)C2)n1 (stereo not given) gave -4.276% & -22.38%.
O=C(C1CCOC1)N1CCC2(CC1)CN(Cc1nccs1)CCO2 (stereo not given) gave 22.19%.
O=C(NCCn1nc(-n2cncn2)ccc1=O)c1ccc(F)cc1F gave 5.559%.
CCn1ncc(CN2CCC(c3ncc(Cl)cc3S(C)(=O)=O)CC2)c1C gave 1.153%.
Cc1nccc(NCc2cncc3c2CCN(S(C)(=O)=O)C3)n1.Cl gave -4.471%.
Cc1nn(C(C)C)c(C)c1NC(=O)Nc1cccnc1N1CCCC1 gave -5.001%.
Cc1cnn(CCC(=O)N2CCC(Nc3cccnn3)CC2)c1 gave -12.5%.
Fc1cnc(N2CC3(CCN(Cc4ccsc4)C3)C2)nc1.O=C(O)C(F)(F)F gave -7.385%.
CC1(C)COCCN1C(=O)CCc1nc(-c2ccncc2)no1 gave -9.985% & -50.74%.
CCC(O)CN1CCN(C(=O)Cc2ccc(C)nc2)CC1 (stereo not given) gave 33.86%.
CCC[C@@H]1CN(C(=O)c2ccccc2-c2ncc[nH]2)C[C@H]1N(C)C gave -24.93%.
Cl.Fc1ccc(F)c(CN2CCC(c3cc4ncccc4cn3)CC2)c1 gave 79.43%.
CC1CCCN(c2nccn3c(=O)[nH]nc23)C1 (stereo not given) gave -1.154%.
O=C(NCCc1csc(N2CCCC2)n1)N(C1CCCC1)C1CC1 gave 12.39%.
COC1(CNC(=O)c2ccc(F)c(F)c2)CCSC1 (stereo not given) gave 19.13%.
COCC(O)CN(C)c1ccnc2ccc(Cl)cc12 (stereo not given) gave -13.28%.
Cc1cc(C)n(CC(C)NC(=O)NCc2c(C)cc(C)[nH]c2=O)n1 (stereo not given) gave -17.97%.
Cc1ccccc1CCNC(=O)C1CC(=O)N(CC(F)(F)F)C1 (stereo not given) gave -8.424%.
O=c1c(S(=O)(=O)N2CCCCC2)cccn1Cc1cccnc1 gave -5.768% & -1.461%.
CC(C)c1nn(C)c(N2CCOCC2)c1CNCc1cscn1 gave 9.465%.
Cl.c1cc(CNCc2ccnc(N3CCCC3)c2)c2c(c1)OCCO2 gave -26.73%.
Cc1nnc(CN(C)CCCOc2ccc(Cl)cc2)o1 gave 16.61%.
c1ccc(CCN2CCOC(CNc3cccnn3)C2)nc1 (stereo not given) gave -33.01%.
Cc1cccc(NC(=O)N2CC(C(=O)NC(C)C)C3(CCOCC3)C2)c1 (stereo not given) gave 31.53%.
COCCCNS(=O)(=O)c1cccc(CSC)c1 gave 23.15%.
O=C(Cc1ccccn1)N1CCC2(CC1)CN(c1ccccn1)CCO2 gave -0.3423% & -33.43%.
[H][C@]12CC[C@]([H])(CN(Cc3cccnc3N)C1)N(Cc1c(C)noc1C)C2=O gave -22.41% & -41.84%.
CC(=O)NCCc1ccc(S(=O)(=O)N(CC(C)C)C(C)C)s1 gave -48.79% & -23.18%.
COc1cccc(COCC(=O)N2CCCC(n3ccnc3)C2)c1 (stereo not given) gave -17.23%.

Once more, the final 6:

Compound,percent effect
Cc1cccc(NC(=O)N2CC(C(=O)NC(C)C)C3(CCOCC3)C2)c1 (stereo not given),31.53
COCCCNS(=O)(=O)c1cccc(CSC)c1,23.15
O=C(Cc1ccccn1)N1CCC2(CC1)CN(c1ccccn1)CCO2,-0.3423 & -33.43
[H][C@]12CC[C@]([H])(CN(Cc3cccnc3N)C1)N(Cc1c(C)noc1C)C2=O,-22.41 & -41.84
CC(=O)NCCc1ccc(S(=O)(=O)N(CC(C)C)C(C)C)s1,-48.79 & -23.18
COc1cccc(COCC(=O)N2CCCC(n3ccnc3)C2)c1 (stereo not given),-17.23